Experimental findings from PMC3641083 are described below.

Protein sequences, listed by entry. Tags and fused reporters are not part of them.
UniProt P78527: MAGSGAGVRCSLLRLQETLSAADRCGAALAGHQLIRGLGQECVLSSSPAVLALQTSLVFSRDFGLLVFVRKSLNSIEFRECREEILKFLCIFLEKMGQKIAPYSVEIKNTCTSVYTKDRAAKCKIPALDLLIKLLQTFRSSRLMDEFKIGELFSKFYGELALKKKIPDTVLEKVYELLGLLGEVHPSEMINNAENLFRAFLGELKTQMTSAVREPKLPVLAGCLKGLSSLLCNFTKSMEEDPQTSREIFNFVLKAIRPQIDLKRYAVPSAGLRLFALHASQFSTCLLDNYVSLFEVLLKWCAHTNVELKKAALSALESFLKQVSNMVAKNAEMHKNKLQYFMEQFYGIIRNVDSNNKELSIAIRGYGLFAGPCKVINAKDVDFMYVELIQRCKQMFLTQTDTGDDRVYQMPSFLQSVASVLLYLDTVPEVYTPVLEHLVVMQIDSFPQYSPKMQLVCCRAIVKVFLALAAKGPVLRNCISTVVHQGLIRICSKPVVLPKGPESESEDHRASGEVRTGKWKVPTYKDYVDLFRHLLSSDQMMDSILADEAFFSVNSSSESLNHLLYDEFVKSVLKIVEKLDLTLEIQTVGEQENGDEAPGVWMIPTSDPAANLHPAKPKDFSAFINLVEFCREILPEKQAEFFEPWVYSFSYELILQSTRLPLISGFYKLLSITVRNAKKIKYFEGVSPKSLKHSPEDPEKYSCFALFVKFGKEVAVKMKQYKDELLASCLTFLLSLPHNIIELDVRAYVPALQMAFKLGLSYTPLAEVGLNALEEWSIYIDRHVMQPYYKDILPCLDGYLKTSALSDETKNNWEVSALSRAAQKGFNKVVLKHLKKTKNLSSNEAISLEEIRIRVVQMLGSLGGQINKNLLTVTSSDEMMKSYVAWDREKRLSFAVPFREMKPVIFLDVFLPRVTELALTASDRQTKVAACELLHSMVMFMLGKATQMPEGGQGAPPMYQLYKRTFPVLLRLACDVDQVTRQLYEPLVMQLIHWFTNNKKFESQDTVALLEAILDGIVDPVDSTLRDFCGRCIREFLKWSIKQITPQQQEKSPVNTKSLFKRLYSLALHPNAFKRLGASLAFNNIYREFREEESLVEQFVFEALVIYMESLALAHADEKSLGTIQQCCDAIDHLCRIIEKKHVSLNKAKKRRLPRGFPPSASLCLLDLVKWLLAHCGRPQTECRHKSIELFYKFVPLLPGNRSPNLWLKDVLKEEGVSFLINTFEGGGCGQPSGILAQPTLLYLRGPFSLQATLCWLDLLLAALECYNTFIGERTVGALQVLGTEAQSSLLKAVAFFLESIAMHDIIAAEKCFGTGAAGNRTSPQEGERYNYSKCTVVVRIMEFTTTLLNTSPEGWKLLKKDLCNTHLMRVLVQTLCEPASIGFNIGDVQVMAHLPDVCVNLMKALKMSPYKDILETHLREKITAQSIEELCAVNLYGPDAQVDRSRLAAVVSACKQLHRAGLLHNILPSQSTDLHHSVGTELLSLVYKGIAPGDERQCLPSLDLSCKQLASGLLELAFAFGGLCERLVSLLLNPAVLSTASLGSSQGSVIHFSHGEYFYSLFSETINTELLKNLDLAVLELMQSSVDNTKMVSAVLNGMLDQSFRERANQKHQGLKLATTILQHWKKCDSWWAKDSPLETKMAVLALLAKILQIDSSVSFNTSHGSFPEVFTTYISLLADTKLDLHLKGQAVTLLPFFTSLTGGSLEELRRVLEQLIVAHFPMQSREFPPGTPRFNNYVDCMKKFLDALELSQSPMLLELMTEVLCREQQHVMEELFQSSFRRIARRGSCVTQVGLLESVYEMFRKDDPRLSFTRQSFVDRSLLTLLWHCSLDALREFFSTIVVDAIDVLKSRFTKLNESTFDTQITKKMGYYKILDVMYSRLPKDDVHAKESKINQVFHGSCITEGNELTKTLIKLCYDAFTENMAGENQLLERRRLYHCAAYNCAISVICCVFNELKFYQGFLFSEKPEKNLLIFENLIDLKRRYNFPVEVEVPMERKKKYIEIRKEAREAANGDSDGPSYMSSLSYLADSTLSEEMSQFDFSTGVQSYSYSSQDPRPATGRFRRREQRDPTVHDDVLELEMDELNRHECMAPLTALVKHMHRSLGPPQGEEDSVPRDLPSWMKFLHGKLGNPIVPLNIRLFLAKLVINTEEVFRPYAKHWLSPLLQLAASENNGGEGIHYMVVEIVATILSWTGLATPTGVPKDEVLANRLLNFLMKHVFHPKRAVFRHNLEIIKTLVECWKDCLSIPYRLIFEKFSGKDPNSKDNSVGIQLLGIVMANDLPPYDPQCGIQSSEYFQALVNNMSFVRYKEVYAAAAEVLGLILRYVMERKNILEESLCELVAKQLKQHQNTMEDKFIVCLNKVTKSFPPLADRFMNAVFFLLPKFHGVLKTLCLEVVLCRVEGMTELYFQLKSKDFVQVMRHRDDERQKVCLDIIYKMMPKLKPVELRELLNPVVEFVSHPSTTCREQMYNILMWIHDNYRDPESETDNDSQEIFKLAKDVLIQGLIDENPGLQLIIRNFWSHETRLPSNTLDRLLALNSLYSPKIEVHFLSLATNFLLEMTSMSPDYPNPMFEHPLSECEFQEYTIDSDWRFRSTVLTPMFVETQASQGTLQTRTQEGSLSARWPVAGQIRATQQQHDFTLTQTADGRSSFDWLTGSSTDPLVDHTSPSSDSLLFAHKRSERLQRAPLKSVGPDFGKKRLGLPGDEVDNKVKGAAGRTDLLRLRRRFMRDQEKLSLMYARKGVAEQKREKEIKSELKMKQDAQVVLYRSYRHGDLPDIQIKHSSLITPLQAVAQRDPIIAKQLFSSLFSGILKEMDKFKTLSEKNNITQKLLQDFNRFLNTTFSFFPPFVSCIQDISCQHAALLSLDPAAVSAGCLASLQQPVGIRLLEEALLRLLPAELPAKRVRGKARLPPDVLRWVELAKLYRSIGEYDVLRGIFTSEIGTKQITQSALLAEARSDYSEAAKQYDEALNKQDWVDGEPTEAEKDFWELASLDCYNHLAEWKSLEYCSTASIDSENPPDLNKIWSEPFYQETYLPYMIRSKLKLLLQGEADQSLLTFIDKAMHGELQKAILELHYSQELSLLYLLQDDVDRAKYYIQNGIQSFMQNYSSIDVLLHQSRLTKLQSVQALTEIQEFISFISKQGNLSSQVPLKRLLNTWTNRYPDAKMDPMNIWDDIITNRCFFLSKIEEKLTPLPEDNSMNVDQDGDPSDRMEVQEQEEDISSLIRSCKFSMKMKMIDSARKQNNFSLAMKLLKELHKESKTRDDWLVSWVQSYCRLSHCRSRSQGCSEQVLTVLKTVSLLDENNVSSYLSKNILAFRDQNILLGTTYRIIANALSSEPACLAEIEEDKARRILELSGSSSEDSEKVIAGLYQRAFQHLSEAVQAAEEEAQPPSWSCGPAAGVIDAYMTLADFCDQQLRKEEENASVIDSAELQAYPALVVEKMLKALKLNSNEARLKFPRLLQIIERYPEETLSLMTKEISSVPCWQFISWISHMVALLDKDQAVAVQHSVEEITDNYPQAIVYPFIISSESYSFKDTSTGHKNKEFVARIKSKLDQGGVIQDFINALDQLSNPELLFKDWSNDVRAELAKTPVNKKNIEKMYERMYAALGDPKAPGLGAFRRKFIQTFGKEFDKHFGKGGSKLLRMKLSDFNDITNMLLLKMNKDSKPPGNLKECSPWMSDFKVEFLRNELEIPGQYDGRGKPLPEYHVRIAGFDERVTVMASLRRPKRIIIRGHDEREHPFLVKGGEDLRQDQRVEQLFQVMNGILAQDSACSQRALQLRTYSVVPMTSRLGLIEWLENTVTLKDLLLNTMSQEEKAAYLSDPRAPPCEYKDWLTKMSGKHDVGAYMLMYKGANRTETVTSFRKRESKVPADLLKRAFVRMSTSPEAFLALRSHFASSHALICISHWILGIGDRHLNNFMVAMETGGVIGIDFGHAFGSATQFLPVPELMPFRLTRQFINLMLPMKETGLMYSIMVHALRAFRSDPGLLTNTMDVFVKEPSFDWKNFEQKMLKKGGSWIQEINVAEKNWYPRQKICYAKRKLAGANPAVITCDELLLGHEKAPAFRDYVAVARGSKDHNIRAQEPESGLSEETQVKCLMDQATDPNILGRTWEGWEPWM
UniProt P09874: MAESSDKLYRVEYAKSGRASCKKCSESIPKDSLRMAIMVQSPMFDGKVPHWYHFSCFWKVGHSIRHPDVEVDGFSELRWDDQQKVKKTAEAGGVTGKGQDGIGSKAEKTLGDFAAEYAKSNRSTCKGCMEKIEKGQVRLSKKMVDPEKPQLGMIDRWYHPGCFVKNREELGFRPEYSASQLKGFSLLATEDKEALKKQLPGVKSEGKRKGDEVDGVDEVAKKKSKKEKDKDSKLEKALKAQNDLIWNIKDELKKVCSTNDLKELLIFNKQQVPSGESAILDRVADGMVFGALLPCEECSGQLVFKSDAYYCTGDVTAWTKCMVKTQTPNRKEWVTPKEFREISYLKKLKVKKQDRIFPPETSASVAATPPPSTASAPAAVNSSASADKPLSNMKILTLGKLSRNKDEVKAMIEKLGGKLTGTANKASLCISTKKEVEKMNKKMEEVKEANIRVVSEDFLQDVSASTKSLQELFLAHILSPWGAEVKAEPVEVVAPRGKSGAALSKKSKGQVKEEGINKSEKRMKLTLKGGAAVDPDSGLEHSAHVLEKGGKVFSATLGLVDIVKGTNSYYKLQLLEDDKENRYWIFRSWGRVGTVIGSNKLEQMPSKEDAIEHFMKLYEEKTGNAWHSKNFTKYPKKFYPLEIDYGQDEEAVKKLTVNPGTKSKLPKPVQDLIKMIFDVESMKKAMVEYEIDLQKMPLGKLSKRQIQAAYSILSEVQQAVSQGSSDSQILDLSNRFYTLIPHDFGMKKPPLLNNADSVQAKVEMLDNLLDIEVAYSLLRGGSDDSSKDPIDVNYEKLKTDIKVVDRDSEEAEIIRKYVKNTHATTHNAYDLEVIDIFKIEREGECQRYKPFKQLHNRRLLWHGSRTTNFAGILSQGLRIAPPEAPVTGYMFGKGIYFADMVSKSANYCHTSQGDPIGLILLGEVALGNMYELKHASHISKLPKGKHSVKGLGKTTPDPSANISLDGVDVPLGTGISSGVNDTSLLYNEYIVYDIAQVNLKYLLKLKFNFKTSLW

These are yes or no findings as the source states them, for the method shown. Binding seen in cells or lysates may run through a third protein. Some results given as binding are weak or reduced against the parent protein; the word gives no strength.

For test [1], the target named is RECQ1 (human (endogenous in HeLa, MO59J, MO59K)) (UniProt P46063). As to the kind of experiment: co-IP; HeLa nuclear extract; Protein G-Dynal beads with polyclonal anti-RECQ1 or mouse monoclonal anti-Ku70/80, 4°C, 90 min, three washes with lysis buffer; also with extract pre-incubated with benzonase (50 U/ml, 2 h, 4°C); Western blot. For orientation: Immunoblotting shows a protein as a band on a membrane.

Test [2] has as its target Ku80 (human (endogenous in HeLa)) (UniProt P13010). The test is described as above.

For the substance DNA-PKcs (from UniProt P78527 1-4128), the binding entry in test [1] is given as “no binding”.

Take PARP-1 (from UniProt P09874 1-1014): the binding entry in test [2] is listed as “binds”.
